Data taken from PubChem BioAssay AID2685 (National Center for Advancing Translational Sciences (NCATS), 2010).
The other results are listed elsewhere or left out. These are further read-outs of the screen, such as a control signal, another cell line or another target. No call is given for them. Compounds called inactive in the main read-out are mostly missing here. Words in brackets tell the shape of the fitted curve; partial curves, single points and poor fits give uncertain potencies.

Experiment: qHTS Assay for Lipid Storage Modulators in Drosophila S3 Cells;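 as to cell number change: cells counted by Cell Tracker Red CMTPX staining in the red channel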
Settings: BODIPY lipid droplet fluorescence, 18-24 h; for cell number change: measured here: cell count max response, cells fed with added oleic acid
Outline: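 Drosophila S3 cells got compounds at several concentrations plus oleic acid (400 uM solution). Laser-scanning cytometry with 488 nm excitation read lipid droplets at 500-530 nm and cells at 575-640 nm. Percent activity was relative to 20 uM Triacsin C.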

[1] = measured here: cell number channel AC50, cells fed with added oleic acid
[2] = measured here: lipid fluorescence (Fed channel) AC50, cells fed with added oleic acid

Row | Structure (SMILES) | cell number change | AC50 [1] | AC50 [2]
1 | Cc1ccc(S(=O)(=O)/N=C2\SC(CC(=O)Nc3ccc(F)cc3)C(=O)N2c2ccccc2)cc1 (stereo not drawn) | 150% | 29.1 µM [rising, partial curve] | –
2 | COCCN(C(=O)CSc1ncccn1)c1c(N)n(Cc2ccccc2)c(=O)[nH]c1=O | 97.3% | 29.1 µM [rising, single point] | 6.51 µM [falling, single point]
3 | Cn1c(SCc2nc3cc(C(=O)O)ccc3c(=O)[nH]2)nnc1C(F)(F)F | -28.3% | – | –
4 | CCCCCCC(=O)Nc1nc(C)c(-c2csc(Nc3cc(Cl)ccc3OC)n2)s1 | -30.1% | 7.31 µM [falling, partial curve] | 14.6 µM [rising, partial curve, poor fit]
5 | CN(C)S(=O)(=O)c1ccc2c(c1)C(=O)c1cc(S(=O)(=O)N(C)C)ccc1CC2 | -0.582% | – | –
6 | CC(OC(=O)C1CCN(S(=O)(=O)c2ccc(Cl)cc2)CC1)C(=O)N1CCc2ccccc21 (stereo not drawn) | 53.2% | 18.4 µM [rising, single point] | 6.51 µM [falling, partial curve, poor fit]
7 | O=[N+]([O-])c1ccc(N/N=C/c2sc(N3CCOCC3)nc2-c2ccccc2)c(S(=O)(=O)Nc2ccccc2Cl)c1 | – | – | 0.291 µM [falling, full curve, poor fit]
8 | Cc1[nH]nc2c1C1(C(=O)Nc3ccc([N+](=O)[O-])cc31)C(C#N)=C(N)O2 (stereo not drawn) | 6.62% | – | –
9 | O=C(CCn1nc(-c2ccc(Cl)cc2)ccc1=O)N1CCN(c2ccccn2)CC1 | – | 0.651 µM [rising, full curve, poor fit] | 0.116 µM [rising, full curve, poor fit]
10 | N#Cc1ccc(OCC(=O)NCC2COc3ccccc3O2)cc1 (stereo not drawn) | -12.3% | – | –
11 | Cc1nc(NC(=O)c2cc3c(C)nn(-c4ccccc4)c3s2)sc1C(=O)Nc1ccccc1 | – | 1.3 µM [rising, full curve] | 6.51 µM [rising, single point]
12 | CCC(C)NCCOCCOc1ccc(Cl)c2ccccc12 (stereo not drawn) | -0.193% | 6.51 µM [falling, single point] | 6.51 µM [falling, single point]
13 | O=C1C=CC(=C(c2ccc(O)cc2)c2ccc(O)cc2)C=C1 | 13.5% | – | 29.1 µM [falling, single point]
14 | CCc1ccc2oc(C(=O)N3CCN(c4ccc(OC)cc4)CC3)cc(=O)c2c1 | 21.6% | – | 29.1 µM [rising, single point]
15 | CC(C)(C)Nc1nc(OCC(F)(F)F)nc(OCC(F)(F)F)n1 | – | – | 29.1 µM [falling, single point]

An excerpt of these results, field by field:
O=C(CCn1nc(-c2ccc(Cl)cc2)ccc1=O)N1CCN(c2ccccn2)CC1
  AC50 [1]: 0.651 µM [rising, full curve, poor fit]
  AC50 [2]: 0.116 µM [rising, full curve, poor fit]
N#Cc1ccc(OCC(=O)NCC2COc3ccccc3O2)cc1 (stereo not drawn)
  cell number change: -12.3%
